# Experimental data reported in the supplement of paper PMC3334620.
# Over roughly 33,000 sequences, “E-score (-0.5 to 0.5)” has its median near -0.015; the highest 2% begin near 0.3. The list shows a part of the results.
# Molecular target: T1, Abf1 (UniProt P14164)
# T1 sequence: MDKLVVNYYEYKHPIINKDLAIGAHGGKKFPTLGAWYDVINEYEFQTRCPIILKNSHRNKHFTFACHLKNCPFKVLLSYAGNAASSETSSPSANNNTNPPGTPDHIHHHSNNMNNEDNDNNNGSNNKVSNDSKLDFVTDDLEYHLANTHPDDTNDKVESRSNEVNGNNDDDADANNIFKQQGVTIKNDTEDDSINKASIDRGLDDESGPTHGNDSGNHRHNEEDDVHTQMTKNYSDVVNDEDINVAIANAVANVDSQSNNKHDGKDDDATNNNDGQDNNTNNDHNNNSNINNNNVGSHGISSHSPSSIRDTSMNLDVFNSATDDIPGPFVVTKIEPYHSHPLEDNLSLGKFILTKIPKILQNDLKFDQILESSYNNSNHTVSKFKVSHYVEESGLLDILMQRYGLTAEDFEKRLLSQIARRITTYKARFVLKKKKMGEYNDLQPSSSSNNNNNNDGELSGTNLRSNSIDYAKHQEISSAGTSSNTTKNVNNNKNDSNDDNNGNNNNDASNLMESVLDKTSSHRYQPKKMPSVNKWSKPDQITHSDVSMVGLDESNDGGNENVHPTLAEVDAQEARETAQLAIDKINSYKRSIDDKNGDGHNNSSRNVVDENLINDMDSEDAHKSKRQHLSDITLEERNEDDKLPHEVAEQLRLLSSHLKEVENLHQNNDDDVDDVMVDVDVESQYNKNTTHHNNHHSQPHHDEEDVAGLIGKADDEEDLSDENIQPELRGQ
# Experiment: PBM E-score (8-mer binding enrichment) (E-score (-0.5 to 0.5)); higher = stronger / more preferred TF binding
# Settings: protein concentration: 200 nM; construct: GST-full length
# Outline: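 Bound GST-tagged yeast transcription factors, applied at about 100-200 nM to double-stranded universal all-10-mer Agilent arrays, were detected with fluorescent anti-GST. Scans were normalised with masliner. A modified Wilcoxon-Mann-Whitney statistic, the E-score, was assigned to each ungapped eight-base word pooled with its reverse complement by the Universal PBM Analysis Suite.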
row,Sequence,PBM E-score
1,GCTGTGAA,0.0318
2,CCTTGCAA,-0.234
3,TGCGTAAA,0.0704
4,TATGCTCA,0.174
5,ATGTCCAA,0.0558
6,AGTAGTCG,0.00062
7,CCCAACCA,-0.0515
8,ACAGGTTA,-0.182
9,ATTCAAAC,0.0296
10,ACGGGAGA,-0.13
11,AATTCATC,0.0238
12,GTTCACCA,0.0848
13,GAAAACCC,0.0491
14,GCGAAGAC,-0.316
15,CGTTCTTC,0.0689
16,AGCCCCAG,-0.186
17,AATGAGCA,0.112
18,GATATTGC,0.118
19,CCCCACCG,-0.232
20,GATAATAA,0.24
21,CGGAAGTA,-0.0352
22,CGGGCATC,-0.0382
23,CGCTAAAC,0.123
24,CAGTAAGC,-0.0498
25,ATGCCCAG,-0.269

row,Sequence,PBM E-score
1,CCGTAGAG,0.102
2,GCCGAAGC,-0.185
3,AGGTGCCG,-0.0483
4,CCAGCCAA,0.029
5,AGCTCACT,-0.133
6,AGCTATCG,0.0623
7,CTTAACGA,0.188
8,CGTGTTGA,0.162
9,CGTTGCTA,0.0226
10,AGTTCGTG,0.326
11,ATTTCATA,0.0854
12,ACTACATG,0.0944
13,CGCGGCAA,0.0562
14,CCTCGTAG,0.17
15,GTACTTGA,0.125
16,ATCTACGG,0.344
17,CGGATACG,0.172
18,CAGTCGGC,-0.269
19,ACAAAGAG,0.00144
20,GTCAGGCA,0.12
21,AAAAAATC,-0.0225
22,CAGTGATG,0.255
23,ACCTGCCG,-0.24
24,ACCTTCTC,-0.00773
25,ACTTGGAC,-0.0592

row,Sequence,PBM E-score
1,GGGGGGAC,-0.294
2,CCGCTGAG,-0.0604
3,AGCGGCTA,-0.136
4,ATTGCGCC,-0.169
5,AGACATAG,0.0414
6,TCAATGAA,0.0569
7,GGATCCCA,-0.0451
8,GCACCTAC,-0.2
9,TAGACCAA,0.0272
10,CAGTCAAG,-0.109
11,AGAACACA,-0.215
12,AGGTTAGC,-0.196
13,CTATGTGA,0.0947
14,CGAACATA,0.0217
15,ATGACCCC,-0.103
16,AGAAATGA,0.253
17,TACCAGAA,-0.0112
18,CGTTCGAC,0.122
19,ACCGACTC,-0.17
20,CCAGTGGC,-0.222
21,TAAAATGA,0.272
22,AAGTAGAG,-0.128
23,GGGCTGAC,-0.0684
24,CTATTACC,-0.106
25,ACGGGTAC,0.0111

# Reprinted from the results shown (4 entries):
row,Sequence,PBM E-score
6,TCAATGAA,0.0569
7,GGATCCCA,-0.0451
8,GCACCTAC,-0.2
9,TAGACCAA,0.0272

# (list continues)

row,Sequence,PBM E-score
1,ACACATCT,-0.0819
2,CCCACTAA,-0.0653
3,AATAAGTG,0.0946
4,AGCTTCTA,-0.182
5,AAGGTCGG,-0.323
6,CTTTAGGC,-0.143
7,ACGTACAA,0.218
8,CCCTAGCC,-0.163
9,CAGAGTCC,-0.029
10,CCCAGCTC,-0.179
11,GAATCCTC,-0.219
12,CGTGGCAC,-0.0836
13,CTCAACGA,0.102
14,ATGACGCA,0.137
15,ATGGGAGG,-0.21
16,GCCCGGCA,-0.208
17,AAGGTTAC,0.00236
18,AAATGGCT,0.0556
19,ATTCAATG,0.0703
20,TACAGCGA,-0.0228
21,CGGGTGTA,-0.102
22,GCTTTCCC,-0.168
23,CTTGTACC,-0.0544
24,AGCTCGTA,0.149
25,TGCATGCA,-0.109

# 4 records picked at random from the list so far:
row,Sequence,PBM E-score
19,ATTCAATG,0.0703
5,AAGGTCGG,-0.323
1,ACACATCT,-0.0819
13,CTCAACGA,0.102

# Further entries:

row,Sequence,PBM E-score
1,ATCGTCTC,0.25
2,ACTACTAC,-0.0341
3,ACAGTTCC,-0.126
4,AGTATAGA,0.0794
5,AATGTACG,0.192
6,AAGACAAT,0.138
7,CCTTCTAC,-0.155
8,GTGCTTCA,-0.0747
9,CGCGGCCG,-0.0338
10,CTTCTTGC,0.0382
11,ACGCCCCA,0.0166
12,CGGCGGAC,-0.0162
13,CGCCAGCC,-0.207
14,ACACTGGC,-0.166
15,GGGAAGCA,-0.179
16,TACAGAGA,-0.0628
17,CGTTCCAG,-0.0488
18,AATGCCCA,-0.0751
19,ACTTGGGG,-0.194
20,CCAGAGAA,0.053
21,GCAACTGC,-0.0516
22,ACAATAAG,0.00628
23,CAAAAAAC,0.0887
24,GACAAACC,-0.0479
25,ATCTCGGC,-0.123

row,Sequence,PBM E-score
1,GCCCATTA,-0.0331
2,GCTGTTTA,-0.0984
3,TGCCGGAA,0.0414
4,AAATTCCG,0.132
5,GATCCACA,0.032
6,AGCCGGTC,-0.144
7,CAGAATGC,-0.0625
8,CCTCTCCA,-0.358
9,TCACACCA,0.112
10,GACGACTA,0.183
11,ACACTATC,0.127
12,ACGAGTCA,0.0417
13,AAATGTAC,0.188
14,CATAATTC,-0.0101
15,CGTCTTCA,0.174
16,ACGGGTGA,0.32
17,GCCCACGC,-0.0827
18,CGAAGAAA,0.0654
19,TAAACTAA,0.151
20,AGTGATCC,0.189
21,CAATTTAC,-0.0222
22,GTCTTAAC,0.0868
23,CCCCAGTA,-0.0493
24,CCGGGAGA,-0.141
25,CCAAGAGC,-0.155

row,Sequence,PBM E-score
1,ATAGGCTC,-0.0801
2,CCGAAACG,0.0848
3,CGTAGTGC,-0.0507
4,CCGAGCAA,-0.168
5,CAGATAGA,-0.192
6,GGAAGCCA,-0.293
7,CCGTGGTC,-0.0733
8,CCGCACCA,-0.101
9,GATATGCC,0.202
10,CGAGAACA,-0.0208
11,TATAAGAA,0.143
12,CGGGTGAG,-0.286
13,AATTTGTC,0.221
14,ATGCTCTA,0.036
15,TCAAAACA,0.0732
16,CTTTTCGC,-0.0129
17,TCCGACAA,-0.0321
18,CCTGCCAC,-0.188
19,ACTAGATG,0.145
20,CGGTGTCA,0.132
21,CTTATAAG,-0.0748
22,GAATGAAA,-0.0868

# Exported as tab-separated lines: entries from further up
row	Sequence	PBM E-score
21	AAAAAATC	-0.0225
22	CAGTGATG	0.255
